Source: patent US10370364B1, “Substituted chromenes for treatment of fibrosis or non-alcoholic steatohepatitis” (OSTEONEUROGEN INC., priority 2018, dated 2019)

Experiment: in vitro
Settings: rat, microsomes

microsomal CLint: 0.15 µL/min/mg
Structure (SMILES): CC(C)NCC(O)COc1ccc(CC(N)=O)cc1 (stereo not shown) [Atenolol]
